Reference: PubChem BioAssay AID504804 (Drosophila RNAi Screening Center, 2011)
The screen tested about 19,000 reagents; this is a random part of those that have a named target and a result. Of all reagents, 47 (0.25%) were called active. 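Signals are raw, not normalised; exact z-scores behind calls not deposited; actives needed confirmation, so some wells reaching 2 SD are inactive.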 Unmarked entries are inactive. A plus sign joins genes that one reagent is predicted to hit. Reagent sequences are not shown.

- Screen: 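Fly genes whose loss lessens doxorubicin-driven cell death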 (primary screen)
- System: Drosophila Kc cells
- Knock-down reagent: long dsRNA against Drosophila genes, 0.5 µg dsRNA per well
- Time to read-out: 96 h (48 h knock-down, then 48 h drug)
- Treatment: doxorubicin 5 µg/ml for 48 h, added 48 h after dsRNA
- Read-out: 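Luminescent ATP counts per replicate, not normalised, reflecting viable cells after 48 h dsRNA knock-down followed by 48 h of 5 µg/ml doxorubicin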
- Direction: raw ATP luminescence: higher = more viable cells, protection from doxorubicin
- Hit rule: 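z-score of 2 or more over plate mean in both duplicates, retained only when retests and separate dsRNAs confirm the protection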

Target gene | amplicon | raw ATP luminescence, replicate 1 | raw ATP luminescence, replicate 2
CG14005 | DRSC02337 | 1.01e5 | 57090
rtp | DRSC12132 | 38700 | 39490
Aasdh | DRSC03467 | 44180 | 60940
Ir60a | DRSC04212 | 59777 | 65213
Mics1 | DRSC12537 | 60293 | 50077
E(var)3-9 | DRSC14451 | 63683 | 62107
Plod | DRSC10601 | 40117 | 34003
Plod | DRSC10602 | 78470 | 75067
CG15831 (retired record) | DRSC20816 | 2.93e5 | 2.66e5
CG14204 | DRSC19559 | 2.89e5 | 2.96e5
emc | DRSC08715 | 82783 | 78147
CG12795 | DRSC00354 | 28480 | 34230
CG5913 | DRSC15916 | 57010 | 63190
chif | DRSC03508 | 91977 | 78373
CG15529 | DRSC15066 | 51130 | 55550
CG11828 | DRSC14394 | 61810 | 45690
CG13038 | DRSC09919 | 49947 | 47993
CG34382 | DRSC08999 | 1.32e5 | 1.72e5
CG34382 | DRSC10166 | 62287 | 63933
CG34382 | DRSC10167 | 66893 | 74880
RpL32 | DRSC16835 | 37450 | 35050

Entries listed so far whose target name begins with R or r (2):
Target gene | amplicon | raw ATP luminescence, replicate 1 | raw ATP luminescence, replicate 2
rtp | DRSC12132 | 38700 | 39490
RpL32 | DRSC16835 | 37450 | 35050

Next entries follow:
Target gene | amplicon | raw ATP luminescence, replicate 1 | raw ATP luminescence, replicate 2
bnk | DRSC16912 | 50570 | 44400
CG9436 | DRSC05005 | 70157 | 69453
CG3568 | DRSC18312 | 40630 | 43610
Mdr65 | DRSC11220 | 93697 | 89180
CG7024 | DRSC18414 | 36090 | 37560
Argl + CG9515 | DRSC03243 | 86377 | 57390
Argl + CG9515 | DRSC03245 | 42260 | 65010
Sp7 | DRSC15461 | 66910 | 68927
mthl2 | DRSC10287 | 75797 | 76167
cGlr2 | DRSC04017 | 73573 | 67613
CG12121 | DRSC17816 | 3.40e5 | 3.58e5
ovo | DRSC18812 | 53860 | 61630
CG5902 | DRSC15912 | 50777 | 50030
sick | DRSC02090 | 54793 | 56057
sick | DRSC02301 | 58210 | 37737
sick | DRSC02302 | 34293 | 38713
sick | DRSC02303 | 31503 | 29077
sick | DRSC02306 | 66023 | 45893
mRpS2 | DRSC00550 | 25763 | 23827
CG7218 | DRSC16216 | 34200 | 33397
slo | DRSC17057 | 50560 | 45970
CG12885 | DRSC14572 | 29900 | 38670
lsn | DRSC16081 | 75150 | 84870
CG30116 | DRSC05935 | 64217 | 57227
snRNA:U1:95Cc | DRSC13640 | 46040 | 48797
CG14657 | DRSC12219 | 55497 | 50337
CG14657 | DRSC12243 | 40450 | 30470
lectin-46Cb | DRSC06611 | 37920 | 73697
CG8117 | DRSC20082 | 3.67e5 | 2.31e5
Lip4 | DRSC02930 | 46060 | 79807
CG10737 | DRSC05999 | 76383 | 66867
Atg10 + CG18853 + CG12822 | DRSC20757 | 1.91e5 | 1.62e5
CG7668 | DRSC10901 | 29337 | 25163
CG13005 | DRSC19524 | 3.35e5 | 3.08e5
Samuel | DRSC02156 | 33457 | 56197
Samuel | DRSC02401 | 22893 | 22397
Samuel | DRSC02402 | 35663 | 74257
